Record: PubChem BioAssay AID1224830 (NIAID, 2016)
This is an unselected part of about 18,000 reagents. About 2,900 of all reagents (16%) were called active. 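Calls are made per well; low scores hint the gene aids the LPS response, high scores that it dampens it.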 Entries without a mark were called inactive. Repeated entries: four replicate wells of each siRNA pool.

Aim: 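Host factors that control LPS-induced TNF expression in human macrophages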 (primary screen)
Cell system: human THP-1 monocytic leukaemia cells, TNF dual-luciferase reporter clone, PMA-differentiated to macrophage-like cells
Knock-down reagent: siRNA pool against human genes, 50 nM
Duration: LPS for 4 h, given about 3 days after siRNA transfection
Treatment: bacterial LPS (TLR4 ligand), 10 ng/ml
Measurement: 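Ratio of firefly to renilla light, scaled to the plate median and expressed as a robust z-score per replicate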
Reading the numbers: TNF reporter robust z-score: higher = stronger TNF reporter response to LPS
Call rule: 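Each well counts as active if its z-score is over 2.8 or under -1.5; controls are left without a call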

For NANP, the entry reads TNF reporter robust z-score 0.75.
With knock-down of NANP the results were TNF reporter robust z-score 1.54.
NANP scored TNF reporter robust z-score 1.14.
After knock-down of NANP, the record shows TNF reporter robust z-score 1.26.
CLEC2D showed TNF reporter robust z-score -0.8.
CLEC2D showed TNF reporter robust z-score -0.32.
For CLEC2D, the entry reads TNF reporter robust z-score -0.95.
Against CLEC2D, the values are TNF reporter robust z-score -0.17.
With knock-down of PCDH17, the screen gave TNF reporter robust z-score -0.71.
Against PCDH17, the entry reads TNF reporter robust z-score 2.53.
Depletion of PCDH17 resulted in: TNF reporter robust z-score 2.18.
Silencing of PCDH17 resulted in: TNF reporter robust z-score 1.8.
With knock-down of HACL1, the screen gave TNF reporter robust z-score 0.43.
For HACL1 the deposit lists TNF reporter robust z-score -0.76.
Silencing of HACL1 came out at: TNF reporter robust z-score 0.21.
Silencing of HACL1 gave: TNF reporter robust z-score 0.75.
Knock-down of DENND11 resulted in: TNF reporter robust z-score 1.11.
For DENND11, the values are TNF reporter robust z-score 1.96.
Knock-down of DENND11 gave: TNF reporter robust z-score 0.83.
After knock-down of DENND11 the results were TNF reporter robust z-score 0.77.
Against YPEL2, the entry reads TNF reporter robust z-score 0.81.
With knock-down of YPEL2 the results were TNF reporter robust z-score 1.84.
Knock-down of YPEL2 came out at: TNF reporter robust z-score 0.4.
Silencing of YPEL2 came out at: TNF reporter robust z-score 1.41.
For CDIPT, the values are TNF reporter robust z-score 0.67.
Against CDIPT, the entry reads TNF reporter robust z-score -0.31.
For CDIPT, the entry reads TNF reporter robust z-score 0.33.
CDIPT scored TNF reporter robust z-score 0.76.
For GZMM, the entry reads TNF reporter robust z-score 1.82.
Against GZMM, the entry reads TNF reporter robust z-score 0.1.
For GZMM, the entry reads TNF reporter robust z-score 1.1.
GZMM gave TNF reporter robust z-score -0.95.
Silencing of GPRC5D came out at: TNF reporter robust z-score -1.15.
GPRC5D showed TNF reporter robust z-score -0.08.
Silencing of GPRC5D resulted in: TNF reporter robust z-score -1.16.
Silencing of GPRC5D came out at: TNF reporter robust z-score -0.74.
RAF1 showed TNF reporter robust z-score -0.46.
Depletion of RAF1 gave: TNF reporter robust z-score -0.55.
Against RAF1 the deposit lists TNF reporter robust z-score -0.45.
With knock-down of RAF1, the record shows TNF reporter robust z-score -0.49.
NLK showed TNF reporter robust z-score -0.62.
With knock-down of NLK, the screen gave TNF reporter robust z-score -0.53.
For NLK, the values are TNF reporter robust z-score -0.6.
Silencing of NLK gave: TNF reporter robust z-score 0.2.
With knock-down of UNC93A the results were TNF reporter robust z-score 0.11.
UNC93A gave TNF reporter robust z-score 1.91.
Knock-down of UNC93A gave: TNF reporter robust z-score 3.6 (active).
For UNC93A the deposit lists TNF reporter robust z-score 2.81 (active).
With knock-down of UGT8, the screen gave TNF reporter robust z-score 0.88.
Against UGT8, the entry reads TNF reporter robust z-score 1.17.
Against UGT8, the values are TNF reporter robust z-score 0.22.
UGT8 gave TNF reporter robust z-score 0.76.
FEZF1 scored TNF reporter robust z-score 0.11.
FEZF1 gave TNF reporter robust z-score 0.21.
Against FEZF1, the entry reads TNF reporter robust z-score -0.43.
For FEZF1, the values are TNF reporter robust z-score 0.32.
Against LOC401052 (retired record) the deposit lists TNF reporter robust z-score -0.96.
Knock-down of LOC401052 (retired record) resulted in: TNF reporter robust z-score 0.11.
For LOC401052 (retired record) the deposit lists TNF reporter robust z-score 0.04.
After knock-down of LOC401052 (retired record) the results were TNF reporter robust z-score 0.1.
